Results deposited as PubChem BioAssay AID1259308 (NCATS, 2017)
Assay: 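Genes whose loss raises luciferase production in HEK293 cells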 (primary screen). Cell system: human HEK293 embryonic kidney cells stably expressing firefly luciferase (HEK-CMV-Luc2-Hygro). Reagents: single siRNA against human genes, 0.8 pmol siRNA per well. Timing: 72 h. Read-out: 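Reporter luminescence and viable-cell signal on separate replicate plates, given as percent of non-targeting control and median/MAD z-scores, plus per-cell luciferase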. Reading the numbers: total luciferase, z-score and total luciferase, % of control: higher = more reporter protein produced. Active means: 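Active when the median/MAD z-score for overall luciferase is greater than 3; a gene was taken forward for validation with new siRNAs if at least two of its three siRNAs passed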. Calls: active = raised luciferase; inactive = no rise.
Shown is a random part of about 59,000 reagents tested. Over the whole deposit, about 1,510 (2.6%) were called active. 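Calls use total luciferase alone and ignore viability, so some active siRNAs may act by altering cell number.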 Unmarked entries are inactive. The numbers tell different reagents against one gene apart. Further read-outs or replicates are left out here.

For OR10G2 #1 the deposit lists total luciferase, z-score -0.771; total luciferase, % of control 66.6. Silencing of OR10G2 #2 gave: total luciferase, z-score 0.708; total luciferase, % of control 96. For OR10G2 #3 the deposit lists total luciferase, z-score 1.44; total luciferase, % of control 110. For ZNF112 #1, the entry reads total luciferase, z-score 1.19; total luciferase, % of control 106. Knock-down of ZNF112 #2 gave: total luciferase, z-score -0.949; total luciferase, % of control 63. After knock-down of ZNF112 #3, the record shows total luciferase, z-score -0.316; total luciferase, % of control 75.6.

After knock-down of CD300A #1 the results were total luciferase, z-score 0.24; total luciferase, % of control 86.7. Depletion of CD300A #2 gave: total luciferase, z-score 2.92; total luciferase, % of control 140. With knock-down of CD300A #3, the record shows total luciferase, z-score 1.06; total luciferase, % of control 103. Against ALDH1A3 #1, the values are total luciferase, z-score 0.644; total luciferase, % of control 94.7. Against ALDH1A3 #2 the deposit lists total luciferase, z-score 1.43; total luciferase, % of control 110. After knock-down of ALDH1A3 #3, the screen gave total luciferase, z-score -0.724; total luciferase, % of control 67.5.

After knock-down of SLC25A26 #1, the screen gave total luciferase, z-score 0.00176; total luciferase, % of control 81.9. After knock-down of SLC25A26 #2, the screen gave total luciferase, z-score -0.206; total luciferase, % of control 77.8. Silencing of SLC25A26 #3 came out at: total luciferase, z-score -0.223; total luciferase, % of control 77.4. Against MAP4K1 #1 the deposit lists total luciferase, z-score -0.73; total luciferase, % of control 67.4. Depletion of MAP4K1 #2 came out at: total luciferase, z-score -1.75; total luciferase, % of control 47.2. MAP4K1 #3 gave total luciferase, z-score 1.03; total luciferase, % of control 102.

With knock-down of NOD2 #1 the results were total luciferase, z-score -0.648; total luciferase, % of control 69. Depletion of NOD2 #2 gave: total luciferase, z-score 0.733; total luciferase, % of control 96.5. Against NOD2 #3, the values are total luciferase, z-score -0.388; total luciferase, % of control 74.2. Against OR4X1 #1, the entry reads total luciferase, z-score -1.02; total luciferase, % of control 61.6. Knock-down of OR4X1 #2 resulted in: total luciferase, z-score -0.366; total luciferase, % of control 74.6. For OR4X1 #3, the values are total luciferase, z-score 0.0514; total luciferase, % of control 82.9.

Silencing of ATP10A #1 resulted in: total luciferase, z-score 1.61; total luciferase, % of control 114. After knock-down of ATP10A #2, the screen gave total luciferase, z-score 0.0192; total luciferase, % of control 82.3. After knock-down of ATP10A #3 the results were total luciferase, z-score -0.836; total luciferase, % of control 65.3. ASH2L #1 showed total luciferase, z-score -0.456; total luciferase, % of control 72.8. With knock-down of ASH2L #2, the record shows total luciferase, z-score -0.846; total luciferase, % of control 65.1. Against ASH2L #3, the values are total luciferase, z-score -0.855; total luciferase, % of control 64.9.

Against FOXA1 #1, the entry reads total luciferase, z-score 0.354; total luciferase, % of control 88.9. Against FOXA1 #2 the deposit lists total luciferase, z-score -1.48; total luciferase, % of control 52.4. After knock-down of FOXA1 #3, the screen gave total luciferase, z-score -0.154; total luciferase, % of control 78.8. Silencing of PTMAP11 #1 gave: total luciferase, z-score -0.492; total luciferase, % of control 72.1. Depletion of PTMAP11 #2 came out at: total luciferase, z-score -0.0629; total luciferase, % of control 80.6. With knock-down of PTMAP11 #3 the results were total luciferase, z-score -0.264; total luciferase, % of control 76.6.

Against C1D #1, the values are total luciferase, z-score -1.1; total luciferase, % of control 60. For C1D #2, the values are total luciferase, z-score -1.04; total luciferase, % of control 61.2. Silencing of C1D #3 resulted in: total luciferase, z-score 0.807; total luciferase, % of control 97.9. ECHDC2 #1 scored total luciferase, z-score -0.121; total luciferase, % of control 79.5. Knock-down of ECHDC2 #2 resulted in: total luciferase, z-score -1.19; total luciferase, % of control 58.2. Against ECHDC2 #3 the deposit lists total luciferase, z-score 0.0952; total luciferase, % of control 83.8.

Targets listed so far whose gene name starts with E or e (3):
ECHDC2 #1: total luciferase, z-score = -0.121; total luciferase, % of control = 79.5
ECHDC2 #2: total luciferase, z-score = -1.19; total luciferase, % of control = 58.2
ECHDC2 #3: total luciferase, z-score = 0.0952; total luciferase, % of control = 83.8
